Test results taken from article doi:10.1101/2022.05.12.491658.
Like-named read-outs stand apart in the source and are kept apart here. No constants are given. Whether binding was seen depends on the method and setting. Some results given as binding are weak or reduced against the parent protein; the word gives no strength. For some of these results: Tags and fused reporters may be left off the sequences shown. Blank lines part the entries; values can stand above or below the molecule they belong to.

Chains of the proteins cited; added tags and fusions are not shown.
UniProt Q9S7Q7: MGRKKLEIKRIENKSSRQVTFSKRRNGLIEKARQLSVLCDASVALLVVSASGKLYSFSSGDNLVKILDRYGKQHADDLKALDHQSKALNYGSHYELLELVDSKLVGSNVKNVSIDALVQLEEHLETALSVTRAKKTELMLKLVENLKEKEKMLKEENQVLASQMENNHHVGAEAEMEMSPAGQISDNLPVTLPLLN

How the values were obtained:
Assay in all cases: two-hybrid
[1] = biological target: FLOWERING LOCUS C (FLC) (Arabidopsis thaliana) (UniProt Q9S7Q7)
[2] = biological target: SHORT … PHASE (SVP) (Arabidopsis thaliana) (UniProt Q9FVC1)
[3] = biological target: MADS … FLOWERING 5 (MAF5) (Arabidopsis thaliana) (UniProt Q683D7)
[4] = biological target: FLOWERING LOCUS C (FLC) (Arabidopsis thaliana) (UniProt Q9S7Q7); remark: listed apart in the source
[5] = biological target: T1, FLOWERING LOCUS D (FLD) (Arabidopsis thaliana) (UniProt Q9CAE3)
T1 sequence: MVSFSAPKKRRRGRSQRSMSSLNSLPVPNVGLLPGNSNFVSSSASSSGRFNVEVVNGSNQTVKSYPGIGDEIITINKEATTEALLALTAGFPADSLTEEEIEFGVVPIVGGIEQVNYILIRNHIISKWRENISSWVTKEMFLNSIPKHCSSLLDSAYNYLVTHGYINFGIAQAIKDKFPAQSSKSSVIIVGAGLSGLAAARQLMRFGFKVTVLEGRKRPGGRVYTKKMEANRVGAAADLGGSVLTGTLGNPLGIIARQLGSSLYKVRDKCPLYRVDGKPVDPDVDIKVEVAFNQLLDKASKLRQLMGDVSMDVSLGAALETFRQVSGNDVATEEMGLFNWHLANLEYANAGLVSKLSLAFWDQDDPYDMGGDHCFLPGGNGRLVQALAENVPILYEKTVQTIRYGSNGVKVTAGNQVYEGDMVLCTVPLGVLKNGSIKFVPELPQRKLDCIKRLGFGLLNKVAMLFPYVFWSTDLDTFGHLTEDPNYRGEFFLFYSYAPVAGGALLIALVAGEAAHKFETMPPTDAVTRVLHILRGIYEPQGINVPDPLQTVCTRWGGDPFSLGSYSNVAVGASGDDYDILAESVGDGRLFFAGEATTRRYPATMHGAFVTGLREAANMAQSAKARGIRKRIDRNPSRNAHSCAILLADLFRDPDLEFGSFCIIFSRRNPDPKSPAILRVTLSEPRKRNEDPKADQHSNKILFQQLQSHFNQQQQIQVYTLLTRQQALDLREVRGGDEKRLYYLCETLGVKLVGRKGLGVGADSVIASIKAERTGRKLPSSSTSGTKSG

[6] = biological target: T2, HISTONE … 5 (HDA5) (Arabidopsis thaliana) (UniProt Q8RX28)
T2 sequence: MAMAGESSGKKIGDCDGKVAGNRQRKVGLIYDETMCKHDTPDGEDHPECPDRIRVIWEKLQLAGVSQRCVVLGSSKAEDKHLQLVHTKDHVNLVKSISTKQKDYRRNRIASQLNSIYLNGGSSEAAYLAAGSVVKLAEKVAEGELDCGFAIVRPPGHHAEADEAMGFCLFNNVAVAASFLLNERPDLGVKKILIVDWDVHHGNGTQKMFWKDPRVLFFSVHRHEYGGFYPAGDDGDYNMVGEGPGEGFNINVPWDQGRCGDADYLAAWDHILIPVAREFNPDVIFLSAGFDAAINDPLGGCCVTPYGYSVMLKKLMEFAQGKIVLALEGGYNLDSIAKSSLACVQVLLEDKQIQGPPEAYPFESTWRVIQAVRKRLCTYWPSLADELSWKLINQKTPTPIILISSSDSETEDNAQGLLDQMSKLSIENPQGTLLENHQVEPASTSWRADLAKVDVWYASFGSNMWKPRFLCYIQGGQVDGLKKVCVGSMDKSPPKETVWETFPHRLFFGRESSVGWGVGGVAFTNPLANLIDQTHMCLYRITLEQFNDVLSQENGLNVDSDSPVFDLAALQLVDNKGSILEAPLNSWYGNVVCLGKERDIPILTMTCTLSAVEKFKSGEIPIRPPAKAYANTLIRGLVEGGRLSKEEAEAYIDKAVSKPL

[7] = biological target: T3, LSD1-like 2 (LDL2) (Arabidopsis thaliana) (UniProt Q9LID0)
T3 sequence: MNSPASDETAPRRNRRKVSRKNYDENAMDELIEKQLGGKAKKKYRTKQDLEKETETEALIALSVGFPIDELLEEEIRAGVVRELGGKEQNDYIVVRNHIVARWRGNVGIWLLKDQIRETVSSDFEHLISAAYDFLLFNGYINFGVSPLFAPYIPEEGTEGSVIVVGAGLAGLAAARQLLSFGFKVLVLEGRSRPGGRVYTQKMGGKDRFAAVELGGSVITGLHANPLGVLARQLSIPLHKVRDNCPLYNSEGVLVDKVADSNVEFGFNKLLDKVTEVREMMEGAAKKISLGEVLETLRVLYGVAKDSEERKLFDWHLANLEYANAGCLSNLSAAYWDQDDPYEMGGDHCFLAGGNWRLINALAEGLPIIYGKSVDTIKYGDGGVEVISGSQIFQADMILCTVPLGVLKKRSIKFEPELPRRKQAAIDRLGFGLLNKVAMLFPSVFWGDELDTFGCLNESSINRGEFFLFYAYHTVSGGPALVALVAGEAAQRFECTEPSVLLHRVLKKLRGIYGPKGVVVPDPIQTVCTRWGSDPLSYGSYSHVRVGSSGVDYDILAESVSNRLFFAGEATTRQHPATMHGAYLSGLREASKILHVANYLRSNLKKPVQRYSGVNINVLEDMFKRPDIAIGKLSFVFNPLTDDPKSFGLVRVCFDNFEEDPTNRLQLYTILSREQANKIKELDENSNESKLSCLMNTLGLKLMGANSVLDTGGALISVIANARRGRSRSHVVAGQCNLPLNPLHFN

binding [1]: binds
Molecule: SHORT … PHASE (SVP) (from UniProt Q9FVC1 1-240)

binding [2]: binds
binding [3]: binds
binding [4]: binds
B1: MADS … FLOWERING 5 (MAF5) (protein, UniProt Q683D7 1-198)
chain: MGRRRVEIKRIENKSSRQVTFCKRRNGLMEKARQLSILCGSSVALFIVSSTGKLYNSSSGDSMAKIISRFKIQQADDPETLDLEDKTQDYLSHKELLEIVQRKIEEAKGDNVSIESLISMEEQLKSALSVIRARKTELLMELVKNLQDKEKLLKEKNKVLASEVGKLKKILETGDERAVMSPENSSGHSPPETLPLLK

binding [5]: no binding
binding [6]: no binding
binding [7]: no binding
B2: LSD1-like 1 (LDL1) (protein, UniProt Q8VXV7 1-844)
chain: MSTETKETRPETKPEDLGTHTTVDVPGEEPLGELIADDVNEVVSDASATETDFSLSPSQSEQNIEEDGQNSLDDQSPLTELQPLPLPPPLPVEARISESLGEEESSDLVTEQQSQNPNAAEPGPRARKRRRRKRFFTEINANPAFSRNRRTSVGKEVDSEALIAMSVGFPVYSLTEEEIEANVVSIIGGKDQANYIVVRNHIIALWRSNVSNWLTRDHALESIRAEHKTLVDTAYNFLLEHGYINFGLAPVIKEAKLRSFDGVEPPNVVVVGAGLAGLVAARQLLSMGFRVLVLEGRDRPGGRVKTRKMKGGDGVEAMADVGGSVLTGINGNPLGVLARQLGLPLHKVRDICPLYLPNGELADASVDSKIEASFNKLLDRVCKLRQSMIEENKSVDVPLGEALETFRLVYGVAEDQQERMLLDWHLANLEYANATLLGNLSMAYWDQDDPYEMGGDHCFIPGGNEIFVHALAENLPIFYGSTVESIRYGSNGVLVYTGNKEFHCDMALCTVPLGVLKKGSIEFYPELPHKKKEAIQRLGFGLLNKVAMLFPCNFWGEEIDTFGRLTEDPSTRGEFFLFYSYSSVSGGPLLVALVAGDAAERFETLSPTDSVKRVLQILRGIYHPKGIVVPDPVQALCSRWGQDKFSYGSYSYVAVGSSGDDYDILAESVGDGRVFFAGEATNRQYPATMHGAFLSGMREAANILRVARRRASSSALNPNQICIDKEEEVDEEEDRCLDQLFETPDLTFGNFSVLFTPNSDEPESMSLLRVRIQMEKPESGLWLYGLVTRKQAIELGEMDGDELRNEYLREKLGLVPVERKSLSQEGESMISSLKAARLNRQIFD
